The whole screen tested about 320,000 compounds, of which about 22,000 (6.9%) were called active. The shares of active, inactive and inconclusive entries below differ from those in the screen. Calls follow the shape of the dose curve; as a rule, active = well fitted inhibition curve with a large enough effect; inconclusive = small, poorly fitted or top-dose-only effect, or another doubt; inactive = no such curve, though single readings can be large or run the other way. Where the call is inconclusive, the potency comes from a doubtful curve fit.
Assay: Primary qHTS for delayed death inhibitors of the malarial parasite plastid, 96 hour incubation
Settings: P. falciparum luciferase reporter growth; series mostly up to 28.7 µM
Outline: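 96 h incubation, 37 C, 5% CO2, of luciferase-reporter P. falciparum-infected RBCs (2% hematocrit, 0.05% parasitemia final) with test compounds; endpoint luminescence.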
% is scaled to controls: 0 for no effect and ±100 for the full control effect; potency is read from the fitted curve at half-maximal effect.

| Compound | Potency | activity change, negative = inhibition |
| --- | --- | --- |
| C/C(=N/NC(=O)c1cccnc1)C1=C(O)CC(C)(C)CC1=O | inconclusive: 18.5 µM [inhibitor, single point] |  |
| C=CCS(=O)(=O)N1CCCC(N(C)CCc2ccc(OC)c(OC)c2)C1 (stereo not given) | active: 5.22 µM |  |
| O=C(CCCSc1nc2ccccc2s1)NCc1ccc2c(c1)OCO2 | inactive |  |
| COc1cc(C2C(C#N)=C(C)NC3=C2C(=O)CC(C)(C)C3)cc(OC)c1O (stereo not given) | inactive |  |
| CCc1cccc(CC)c1N(COC)C(=O)Cn1nnc2ccccc21 | inconclusive: 9.28 µM [inhibitor, partial curve] |  |
| COc1ccc(N2C(=O)[C@@H]3[C@H](C2=O)[C@H]2c4ccccc4C=CN2[C@@H]3C(=O)Nc2ccccc2)cc1 | active: 9.28 µM |  |
| COc1ccccc1N1CCN(Cc2cc(=O)c(OCC(=O)NC3CCCC3)co2)CC1 | inconclusive: 2.62 µM [inhibitor, partial curve] |  |
| CN(C)C=NC(=O)c1cc(C(=O)c2ccc(Cl)cc2)c[nH]1 | inactive |  |
| Cc1ccc(-c2nc(Nc3cccc(O)c3)c3ccccc3n2)cc1 | inconclusive: 3.7 µM [inhibitor, partial curve] |  |
| O=C(C1CC1)N(CCN(C(=O)C1CC1)c1ccccc1)c1ccccc1 | inactive |  |
| O=C(CN1CCN(C(=O)CNC(=O)c2ccc(N3CCCC3=O)cc2)CC1)Nc1ccccc1Cl | inconclusive: 9.28 µM [inhibitor, partial curve] |  |
| COc1ccc(/C=C2/SC(=O)N(CC(O)Cn3c4ccccc4c4ccccc43)C2=O)cc1 (stereo not given) | inconclusive: 10.4 µM [inhibitor, single point] |  |
| CCc1ccccc1NC(=O)C1CC(c2ccc(F)cc2)=NO1 (stereo not given) | inactive |  |
| O=C(COC(=O)c1cccs1)NC1CCCC1 | inconclusive: 18.5 µM [inhibitor, single point] |  |
| CCOc1ccc(NC(=O)C2CCCN(S(=O)(=O)c3c(C)noc3C)C2)cc1 (stereo not given) | inactive |  |
| CCC(OCC(O)CN1CCN(CCN2C(=O)c3cccc4cccc(c34)C2=O)CC1)c1ccccc1 (stereo not given) | inconclusive: 11.7 µM [inhibitor, partial curve, poor fit] |  |
| Nc1c(C(=O)Nc2ccccc2)sc2ncc([N+](=O)[O-])cc12 | inactive |  |
| COc1ccc(S(N)(=O)=O)cc1C(=O)OCC(=O)NC(C)(C#N)C1CC1 (stereo not given) | inactive |  |
| Cc1ccc2c(c1)c1c(n2CC(O)Cn2nc(C)c(Br)c2C)CCCC1 (stereo not given) | inconclusive: 4.65 µM [inhibitor, partial curve, poor fit] |  |
| CCOc1ccc(NC(=O)CC2C(=O)N(c3ccc(OCC)cc3)C(=S)N2C2CC2)cc1 (stereo not given) | inconclusive: 10.4 µM [inhibitor, single point] |  |
| COc1ccc(CCN(C)Cc2ccc(OCc3ccccc3)c(OC)c2)cc1OC | inconclusive: 7.38 µM [inhibitor, partial curve, poor fit] |  |
| Nc1cc(-c2cccc(F)c2)nn1S(=O)(=O)c1cccc2nsnc12 | active: 1.65 µM |  |
| CCN(CC)c1ccc(C(=S)NCc2ccccc2)cc1 | inconclusive: 18.5 µM [inhibitor, single point] |  |
| COc1cc(C(c2sc3nc(C)nn3c2O)N2CC(C)CC(C)C2)cc(OC)c1OC (stereo not given) | inconclusive: 0.37 µM [inhibitor, full curve, poor fit] |  |

| Compound | Potency | activity change, negative = inhibition |
| --- | --- | --- |
| O=C(Cc1cccs1)Nc1ccc(F)c(S(=O)(=O)N2CCOCC2)c1 | active: 6.57 µM |  |
| COc1ccc(NC(=S)NC(NC(=O)c2ccccc2Cl)C(Cl)(Cl)Cl)c([N+](=O)[O-])c1 (stereo not given) | active: 3.7 µM |  |
| COc1ccc(OC)c(CCNC(=O)C(=O)Nc2ccc3nc4n(c(=O)c3c2)CCCCC4)c1 | inactive |  |
| COc1ccc(CN(C(=O)CSc2nnc(-c3c[nH]c4ccccc34)o2)c2ccc(F)cc2)cc1OC | inconclusive: 18.5 µM [inhibitor, single point] |  |
| CCC1C/C(=C\c2cc(OC)c(OC)cc2OC)C(=O)/C(=C/c2cc(OC)c(OC)cc2OC)C1 (stereo not given) | inconclusive: 3.7 µM [inhibitor, partial curve, poor fit] |  |
| O=C(CCN1C(=O)/C(=C/c2ccccc2F)SC1=S)NCCCn1ccnc1 | inconclusive: 11.7 µM [inhibitor, partial curve, poor fit] |  |
| Cc1cccc2sc(NC(=O)CN3C(=O)c4ccccc4C3=O)nc12 | inconclusive: 11.7 µM [inhibitor, single point] |  |
| COc1ccc(CNC(=S)Nc2ccccc2-c2ccccc2)cc1 | active: 8.28 µM |  |
| O=C(CSc1nnc(Nc2ccccc2)s1)NCc1ccco1 | inconclusive: 9.28 µM [inhibitor, partial curve, poor fit] |  |
| CCCNC(=O)CS(=O)(=O)Cc1nc(-c2cccc(OC)c2)oc1C | inactive |  |
| C=CCn1c(SCC(=O)Nc2c(C)cccc2C)nnc1-c1ccncc1 | inconclusive: 16.5 µM [inhibitor, single point] |  |
| CCOc1ccccc1NC(=O)CN1C(=O)C(C)SC(C)C1=O (stereo not given) | inconclusive: 0.0026 µM [inhibitor, full curve, poor fit] |  |
| O=C(NCc1ccc(Cl)cc1)C(=O)c1c[nH]c2ccccc12 | inactive |  |
| Cc1ccc(Cl)cc1N(CC(=O)N1CCOCC1)S(C)(=O)=O | inconclusive: 18.5 µM [inhibitor, single point] |  |
| CCOC(=O)C1(CCCc2ccccc2)CCN(C(=O)C2CCCN(C(N)=O)C2)CC1 (stereo not given) | active: 13.1 µM |  |
| O=C(NC1CCCCC1)N1CCN(c2ccccc2Cl)CC1 | inactive |  |
| COc1ccc(/C=N/N(C)C2=NS(=O)(=O)c3ccccc32)cc1OC | inconclusive: 18.5 µM [inhibitor, single point] |  |
| CC(C)(C)NC(=O)C(c1ccc(F)cc1)N(Cc1ccco1)C(=O)CCC(=O)Nc1ccccn1 (stereo not given) | inactive |  |
| CN(C)S(=O)(=O)c1cccc(NC(=O)COC(=O)C2(c3ccccc3F)CCCC2)c1 | inconclusive: 13.1 µM [inhibitor, partial curve, poor fit] |  |
| COc1cc(CNC2CCCC2)cc(Cl)c1OCc1ccccc1Cl | inconclusive: 0.928 µM [inhibitor, full curve, poor fit] |  |
| CCOC(=O)N1CCC(N2C(=O)c3ccccc3C2Nc2ccc3c(C)cc(=O)oc3c2)CC1 (stereo not given) | inactive |  |
| COc1ccc(OC)c(CCNC(=O)CCn2ccc3cc(S(=O)(=O)N4CCCC4)ccc32)c1 | inconclusive: 1.65 µM [inhibitor, partial curve] |  |
| Cc1ccc(C(=O)c2c3ccc([N+](=O)[O-])cc3[n+]([O-])n2CCCN)cc1 | inconclusive: 2.94 µM [inhibitor, single point] |  |
| CCN(C(=O)CSc1nnc(-c2ccco2)n1Cc1ccccc1)C1CCS(=O)(=O)C1 (stereo not given) | inconclusive: 13.1 µM [inhibitor, single point] |  |

| Compound | Potency | activity change, negative = inhibition |
| --- | --- | --- |
| COc1ccc(C(=O)CCN2CCCCCC2)cc1 | inconclusive: 3.7 µM [inhibitor, partial curve] |  |
| O=C1CC(c2ccco2)CC(O)=C1C=Nc1cc(Cl)ccc1O (stereo not given) | inconclusive: 18.5 µM [inhibitor, single point] |  |
| N#CCc1ccc(C(=O)c2ccccc2)s1 | inactive |  |
| Cc1c(C(=O)NNc2cc(=O)n(C)c(=O)n2C)cccc1[N+](=O)[O-] | inactive |  |
| O=C(CN(C(=O)Cn1nnc(-c2cccs2)n1)c1ccc2c(c1)OCCO2)NCC1CCCO1 (stereo not given) | inconclusive: 18.5 µM [inhibitor, single point] |  |
| c1ccc(Cn2nnc3c(NCC4CCCO4)nc(C4CC4)nc32)cc1 (stereo not given) | inconclusive: 2.08 µM [inhibitor, full curve] |  |
| CCC(=O)N(C)CCc1cc2c(c(OC)c1/C=N/NC(=O)c1ccccc1O)OCO2 | inactive |  |
| O=C(CNC(=O)c1cccs1)Nc1ccc(N2CCOCC2)cc1 | inactive |  |
| Cc1nc2ccccc2c(=O)n1/N=C/c1ccc2ccccc2c1O | inconclusive: 11.7 µM [inhibitor, partial curve, poor fit] |  |
| COc1cc(C)c(CN2CCC(Cc3ccccc3)CC2)cc1C | inconclusive: 11.7 µM [inhibitor, partial curve, poor fit] |  |
| CSCCC(NC(=O)c1ccccc1)C(=O)NCCc1ccccc1 (stereo not given) | inactive |  |
| CCc1nc(C)cn1S(=O)(=O)c1cc([N+](=O)[O-])ccc1Cl | inconclusive: 6.57 µM [inhibitor, partial curve] |  |
| [O-][n+]1c2ccccc2c2n1CCN=C2c1ccc(Cl)cc1 | inactive |  |
| CCOC(=O)C1(Cc2ccccc2)CCN(Cc2cccn2-c2cccnc2)CC1 | inconclusive: 11.7 µM [inhibitor, single point] |  |
| CC(C)OC(=O)c1ccc(NC(=O)Cn2c(-c3nonc3N)nc3ccccc32)cc1 | active: 8.28 µM |  |
| COc1ccc(/C=N/NC(=O)c2ccncc2)cc1COc1ccc(NC(C)=O)cc1 | inactive |  |
| COc1ccccc1CCc1nnc(CCC(=O)N(C)Cc2cccc3ncccc23)o1 |  | inactive: 44.6% [at 1.15 µM] |
| CC1(C)NC(=O)N(CCCCSc2ccc(Cl)cc2)C1=O | inconclusive: 18.5 µM [inhibitor, single point] |  |
| COc1ccc2ccccc2c1C1CC(=O)N2CN(C3CCCCC3)CSC2=C1C#N (stereo not given) | inconclusive: 9.28 µM [inhibitor, single point] |  |
| Cc1ccc(NS(=O)(=O)c2cc(C(=O)NCCSc3ccc(C)cc3)ccc2C)cc1 | active: 11.7 µM |  |
| Cc1ccc(N(CC(O)CN2CCCC2)S(=O)(=O)c2ccccc2)cc1 (stereo not given) | inconclusive: 10.4 µM [inhibitor, single point] |  |
| COc1ccc(CC(=O)NC(C)c2nnc(SCC(=O)Nc3ccccc3F)n2C)cc1 (stereo not given) | inconclusive: 2.33 µM [inhibitor, partial curve, poor fit] |  |

16 entries from above, bar-delimited:
Compound | Potency | activity change, negative = inhibition
O=C(C1CC1)N(CCN(C(=O)C1CC1)c1ccccc1)c1ccccc1 | inactive | 
O=C(CN1CCN(C(=O)CNC(=O)c2ccc(N3CCCC3=O)cc2)CC1)Nc1ccccc1Cl | inconclusive: 9.28 µM [inhibitor, partial curve] | 
COc1ccc(/C=C2/SC(=O)N(CC(O)Cn3c4ccccc4c4ccccc43)C2=O)cc1 (stereo not given) | inconclusive: 10.4 µM [inhibitor, single point] | 
CCc1ccccc1NC(=O)C1CC(c2ccc(F)cc2)=NO1 (stereo not given) | inactive | 
O=C(COC(=O)c1cccs1)NC1CCCC1 | inconclusive: 18.5 µM [inhibitor, single point] | 
CCOc1ccc(NC(=O)C2CCCN(S(=O)(=O)c3c(C)noc3C)C2)cc1 (stereo not given) | inactive | 
CCC(OCC(O)CN1CCN(CCN2C(=O)c3cccc4cccc(c34)C2=O)CC1)c1ccccc1 (stereo not given) | inconclusive: 11.7 µM [inhibitor, partial curve, poor fit] | 
Nc1c(C(=O)Nc2ccccc2)sc2ncc([N+](=O)[O-])cc12 | inactive | 
COc1ccc(S(N)(=O)=O)cc1C(=O)OCC(=O)NC(C)(C#N)C1CC1 (stereo not given) | inactive | 
Cc1ccc2c(c1)c1c(n2CC(O)Cn2nc(C)c(Br)c2C)CCCC1 (stereo not given) | inconclusive: 4.65 µM [inhibitor, partial curve, poor fit] | 
CCOc1ccc(NC(=O)CC2C(=O)N(c3ccc(OCC)cc3)C(=S)N2C2CC2)cc1 (stereo not given) | inconclusive: 10.4 µM [inhibitor, single point] | 
COc1ccc(CCN(C)Cc2ccc(OCc3ccccc3)c(OC)c2)cc1OC | inconclusive: 7.38 µM [inhibitor, partial curve, poor fit] | 
Nc1cc(-c2cccc(F)c2)nn1S(=O)(=O)c1cccc2nsnc12 | active: 1.65 µM | 
CCN(CC)c1ccc(C(=S)NCc2ccccc2)cc1 | inconclusive: 18.5 µM [inhibitor, single point] | 
COc1cc(C(c2sc3nc(C)nn3c2O)N2CC(C)CC(C)C2)cc(OC)c1OC (stereo not given) | inconclusive: 0.37 µM [inhibitor, full curve, poor fit] | 
O=C(Cc1cccs1)Nc1ccc(F)c(S(=O)(=O)N2CCOCC2)c1 | active: 6.57 µM | 

Reference: PubChem BioAssay AID504834 (National Center for Advancing Translational Sciences (NCATS), 2011)
